From US20200017862A1
These are yes or no findings as the source states them, for the method shown. In cells and extracts the contact can be indirect. Some binding calls cover weakened binding; strength is not graded here. Where a sequence is shown, tags or fusion partners need not be part of it.

The chains behind the UniProt entries cited, without tags or fusion partners.
UniProt P18248: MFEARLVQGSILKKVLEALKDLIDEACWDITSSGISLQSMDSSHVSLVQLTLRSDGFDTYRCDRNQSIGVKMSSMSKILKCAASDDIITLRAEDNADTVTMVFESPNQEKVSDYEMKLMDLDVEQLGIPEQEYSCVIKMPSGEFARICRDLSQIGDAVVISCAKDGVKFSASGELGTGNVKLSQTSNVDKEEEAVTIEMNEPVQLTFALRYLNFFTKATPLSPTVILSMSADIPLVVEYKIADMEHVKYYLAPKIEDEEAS

Assays:
[1] = target: PCNA, endogenous, in Xenopus egg extract (HSS) (Xenopus) (UniProt P18248); test: GST pulldown from Xenopus HSS, immunoblot
[2] = target: WT His-tagged PCNA (recombinant Xenopus PCNA) (Xenopus) (UniProt P18248); test: GST pulldown with purified proteins in interaction buffer, immunoblot

binding [1]: binds
binding [2]: binds
B1: GST-APE2 (recombinant GST-tagged Xenopus APE2) (enzyme, Xenopus laevis, UniProt Q6DDT4 1-517, looked up, not shown: a dimerising Fc or GST)
chain: MKIVSWNINGIRATRVGLKETLDSLDADIICLQETKVTRDLLDEPSAIVEGYNSYFSFSRVRSGYSGVATFCKSSTTPQAAEEGLSGVFCNRTGSVGCYGNTEQFLEEELQSLDQEGRAVLTQHRILNCEDKEETLTVINVYCPRADPEKPERKTYKLRFYHLLQTRAEAILQNGGHVIILGDVNTSHRPLDHCDPTDLETFEENPGRQWLNQFLGDPIPSQKGDSETVMPPSAGSGLFYDSFRYFHPTQKNAFTCWCSASGARQTNYGTRIDYILGNRELVESEFLDSVIMPEVEGSDHCPVKAFMKCQPIAANKCPPLCTKYLPEFAGRQQKLLQFLVKKENTLGNTTEESSELTGTPSFTEGADISTVRKRPSDKLNSTSKKKSKIVTKNGQGNLLSFFKPERQKLTMATECNPIEVPICKKEKTVQKDLQPATPAVKYNKPQTAFWKSLLKGPPPPPNCKGHSEPCVLRTVKKAGPNCGRQFYVCARPEGHSSNPQARCNFFLWLTKKAGCED
